This note sets out measurements from patent publication US20140045805A1, “Fragrance Compositions and Other Compositions Which Contain Naturally Occurring Substances Found in Corals” (priority 2007, published 2014).

“Also recorded” adds a separate entry of the source.

This data set has as its system healthy volunteers (men and women). As to the kind of experiment: Local and general tolerability and safety of airborne nasal delivery. To be noted: 12 ng intranasal. The format is in vivo, human. The protocol: The physiologic and psychological effects of pregna-5,20-dien-3β-ol were investigated in men and women. Additionally, the local and general tolerability and safety of pregna-5,20-dien-3β-ol delivered airborne to the nasal passages were also evaluated.
After completion of physiologic recordings and the modified DABS-70 (#3), all surface electrodes were removed and the subject went through an exit interview lasting 5 minutes. At this time the investigator recorded again the arterial blood pressure and also inquired the subject about his or her state of feelings, and also any possible adverse effect appearing during the study session.

On to `C=C[C@H]1CC[C@H]2[C@@H]3CC=C4C[C@@H](O)CC[C@]4(C)[C@H]3CC[C@]12C` [pregna-5,20-dien-3β-ol, Pregna-5,20-dien-3β-ol], for which the “Perception of the substance as an odor” value is listed as “none of the volunteers studied was able to smell; also recorded: did not perceive the active substance as an odor”.
